Source: patent US7998972B2, “1H-imidazo[4,5-c]quinoline derivatives in the treatment of protein kinase dependent diseases” (Novartis AG, priority 2002, dated 2011)
At least one compound was matched to its structure with a doubt left.

Molecular target: CDK1
Assay: Inhibition of CDK1 (p34cdc2/cyclin Bcdc13 kinase, histone H1 substrate)
Assay type: biochemical, starfish
Details: read-out: IC50 range class, inhibition of CDK1 in vitro
Procedure: Starfish oocytes are induced into the M phase with 10 μM 1-methyl-adenine, frozen in liquid nitrogen and stored at −80° C. The ooctyes are homogenized and centrifuged, as described in D. Arlon et al., Cell 55, 371-378 (1988) and V. Rialet und L. Meijer, Anticancer Res. 11, 1581-1590 (1991), as required. For purification of the p34^cdc2/cyclin B^cdc13 kinase, the supernatant of the oocytes is introduced onto p9^CKShs Sepharose grains produced from recombinant human protein p9^CKShs, as described in L. Azzi et al., Eur. J. Biochem. 203, 353-360 (1992). After 30 minutes at 4° C. under constant rotation, the grains are washed thoroughly and the active p34^cdc2/cyclin B^cdc13 kinase is eluted with free protein p9^CKShs (3 mg/ml). The kinase eluted is tested as described in L. Meijer et al., EMBO J. 8, 2275-2282 (1989) and EMBO J. 10, 1545-1554 (1991), using histone H1 as the substrate. In this test, the compounds of the formula I and their pharmaceutically acceptable salts have an inhibiting concentration IC50 [μmol/l] of 0.01 to 10, usually of 0.05 to 1.

**Q.** With `CCc1ccc2ncc3ncn(-c4ccccc4Cl)c3c2c1` [Example 49, 1-(2-Chloro-phenyl)-ethyl-1H-imidazo[4,5-c]quinoline] as the molecule, how does the IC50 read?
**A.** The IC50 was at most 500 nM.
